No constants are given. Whether binding was seen depends on the method and setting. For part of these data: Binding seen in cells or lysates may run through a third protein. Some binding calls cover weakened binding; strength is not graded here.

Chains of the proteins cited; added tags and fusions are not shown.
UniProt Q9H0A6: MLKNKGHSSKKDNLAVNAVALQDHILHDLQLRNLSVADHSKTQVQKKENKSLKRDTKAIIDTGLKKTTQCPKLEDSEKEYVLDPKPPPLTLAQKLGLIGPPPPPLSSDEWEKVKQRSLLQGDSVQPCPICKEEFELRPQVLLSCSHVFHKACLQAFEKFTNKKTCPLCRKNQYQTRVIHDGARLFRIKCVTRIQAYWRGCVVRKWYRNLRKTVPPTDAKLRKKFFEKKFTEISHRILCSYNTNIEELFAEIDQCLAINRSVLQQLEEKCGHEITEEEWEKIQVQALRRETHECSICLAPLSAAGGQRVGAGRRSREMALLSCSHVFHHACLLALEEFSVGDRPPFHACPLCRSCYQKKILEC
UniProt P49841: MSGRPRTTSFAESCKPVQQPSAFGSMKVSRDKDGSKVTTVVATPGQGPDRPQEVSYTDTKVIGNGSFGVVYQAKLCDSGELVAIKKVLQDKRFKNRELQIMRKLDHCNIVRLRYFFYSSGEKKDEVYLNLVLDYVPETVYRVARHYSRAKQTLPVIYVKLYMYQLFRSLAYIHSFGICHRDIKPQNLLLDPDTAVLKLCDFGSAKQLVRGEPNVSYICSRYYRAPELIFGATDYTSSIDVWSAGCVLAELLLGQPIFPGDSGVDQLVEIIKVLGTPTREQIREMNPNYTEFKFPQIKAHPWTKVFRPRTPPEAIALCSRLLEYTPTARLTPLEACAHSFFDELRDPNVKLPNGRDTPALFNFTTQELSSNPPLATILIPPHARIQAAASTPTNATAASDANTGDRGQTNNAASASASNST

Experiment [1] concerns the target FLAG-tagged RNF32 (human) (UniProt Q9H0A6). In words: co-IP; 293T cells transfected with FLAG-RNF32 and HA-GSK3β plasmids (wild type or mutated), 24 h; IP lysis buffer; protein G agarose beads with antibodies overnight at 4 °C; washes with 300 mM or 150 mM NaCl; immunoblot.
The next experiment concerns the target GST-GSK3β (UniProt P49841). Nature of the experiment: pull-down; 50 µg GST-GSK3β or GST on glutathione Sepharose 4B beads, incubated with 20 µg purified Flag-RNF32; Western blot with anti-FLAG and anti-GST; both purified.
For a further experiment, the target named is HA-tagged GSK3β (UniProt P49841). Nature of the experiment: co-IP; 293T cells transfected with FLAG-RNF32 and HA-GSK3β plasmids (wild type or mutated), 24 h; IP lysis buffer; protein G agarose beads with antibodies overnight at 4 °C; washes with 300 mM or 150 mM NaCl; immunoblot.

With “HA-tagged GSK3β (from UniProt P49841 1-420) (enzyme)”, in experiment [1], the binding entry was “binds”.

Take “FLAG-RNF32 purified from E. coli (from UniProt Q9H0A6 1-362) (enzyme)”: the binding entry with GST-GSK3β is given as “binds”.

In the case of “FLAG-tagged RNF32 (from UniProt Q9H0A6 1-362) (enzyme)”, in the experiment with HA-tagged GSK3β, the binding result was “binds”.

The record behind these values is PMC12931155, “Colorectal Cancer Cell's Weapon: RNF32 Engages SPP1^+ Macrophages to Foster Liver Metastasis, Targeted by Indole‐3‐Acetic Acid” (Advanced Science, 2025).
